# The whole screen tested about 350,000 compounds, of which about 220 (0.063%) were called active. The shares of active, inactive and inconclusive entries below differ from those in the screen. The call rests on the fitted dose curve; in most records, active means well fitted activation curve with a large enough effect; inconclusive means small, poorly fitted or top-dose-only effect; inactive means no such curve, though single readings can be large or run the other way. Potencies of inconclusive entries are doubtful fits and often do not repeat.
# Experiment: qHTS for Activators of Integrin-Mediated Alleviation for Muscular Dystrophy; further: nearly all actives have a fitted effect of over 60% in size;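 on activation: 100% = response of the positive control SU9516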
# Conditions: alpha7betagal myoblasts, beta-gal FDG fluorescence, 48 h; activation: at 38.3 µM (top of the series)
# In short: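 Alpha7betagal+/- myoblasts (passage 13) were plated 16-24 hr, then exposed to compounds (1:260 dilution of DMSO stock) for 48 hours at 37C. After MPER lysis, β-galactosidase reporter activity was read as FDG fluorescence (ex 480/em 540) after 30 minutes.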
# Potency means the concentration at half of the fitted maximal effect.
Structure (SMILES),Potency,activation
CC(=O)Nc1ccc(S(=O)(=O)N(C)c2nc3ccccc3nc2Cl)cc1,"inconclusive: 0.501 µM [activator, full curve, poor fit]",–
CCOC(=O)C1(CCCc2ccccc2)CCN(C(=O)c2cc(C)nn2CC)CC1,"inconclusive: 5.01 µM [activator, single point]",–
CCN1CCN(Cc2ccc(NC(=O)Nc3ccc(SC)cc3)cc2)CC1,inactive,–
COc1ccc(-n2cc(CN3CCC(OC)CC3)c(-c3cccc(F)c3)n2)cc1,"inconclusive: 5.01 µM [activator, single point]",–
COc1ccc(C(=O)N2CCN(c3nc(C4CC4)nc4sc(C)c(C)c34)CC2)cc1,inactive,–
COc1cccc(N2CCc3c(C)nc4ccc(Cl)cc4c32)c1,"inconclusive: 28.2 µM [activator, single point]",–
Cc1ccc(S(=O)(=O)Nc2c(NC3CCCCC3)c3ccccc3oc2=O)c(C)c1,"inconclusive: 10 µM [activator, single point]",–
COc1ccc(NC(=O)CSc2ccc(-c3ccco3)nn2)c(OC)c1,"inconclusive: 1.58 µM [activator, partial curve, poor fit]",–
CCS(=O)(=O)NCC(c1cccnc1)N1CCN(c2ccc(OC)cc2)CC1 (stereo unspecified),inactive,–
O=C1C(Cl)=C(Nc2ccc3cn[nH]c3c2)C(=O)c2ccccc21,inactive,–
COc1ccccc1N(CC(=O)NCC1CCCO1)C(=O)CNS(=O)(=O)c1ccc(Cl)cc1 (stereo unspecified),inactive,–
Cc1ccc(S(=O)(=O)N2CCCCC2)cc1NC(=O)c1cnccn1,inactive,–
CCCn1c(SCCC(=O)O)nc2ccccc21,"inconclusive: 28.2 µM [activator, single point]",–
CCOC(=O)c1nnn(-c2nonc2N)c1CN1CCCC1,inactive,–
O=C1C=CC(=O)N1CCNc1ncc(C(F)(F)F)cc1Cl,inactive,–
CC(=O)c1cccc(NC(=O)N2CCOCC2)c1,"inconclusive: 3.55 µM [activator, single point]",–
CN(C(=O)C1CCC(CNS(=O)(=O)c2cccc3cccnc23)CC1)C1CCCCC1 (stereo unspecified),"inconclusive: 5.01 µM [activator, single point]",–
COc1cccc(NC(=O)Nc2ccc3c(c2)OCO3)c1,inactive,–
COc1ccc(CCNC(=O)[C@H](C)NC(=O)N2CCn3c2nc2ccccc23)cc1OC,"inconclusive: 2 µM [activator, partial curve, poor fit]",–
Cc1cc(=O)n2c3ccccc3n(CC(O)CN3CCOCC3)c2c1C#N (stereo unspecified),"inconclusive: 1.58 µM [activator, single point]",–
CCn1cc2nc(SCC(=O)Nc3ccccc3F)n(Cc3ccccc3)c(=O)c2n1,"inconclusive: 4.47 µM [activator, single point]",–
Cc1ccccc1C(=O)NNC(=O)/C=C\C(=O)O,"inconclusive: 5.01 µM [activator, single point]",–
Cn1c(=O)c(=O)n(C)c2cc(S(=O)(=O)Nc3ccc(OC(F)(F)F)cc3)ccc21,"inconclusive: 5.62 µM [activator, full curve, poor fit]",–

# In the list so far, these have a CF3 group:
Structure (SMILES),Potency,activation
O=C1C=CC(=O)N1CCNc1ncc(C(F)(F)F)cc1Cl,inactive,–
Cn1c(=O)c(=O)n(C)c2cc(S(=O)(=O)Nc3ccc(OC(F)(F)F)cc3)ccc21,"inconclusive: 5.62 µM [activator, full curve, poor fit]",–

# Next structures

Structure (SMILES),Potency,activation
O=C(C1CC12CCCC2)N1CCC(CO)(Cc2ccccc2Cl)CC1 (stereo unspecified),"inconclusive: 2.24 µM [activator, partial curve, poor fit]",–
CCOC(=O)c1c(NC(=O)C2=C(C)NC(=S)NC2c2ccccc2C(F)(F)F)sc(C)c1C (stereo unspecified),inactive,–
C[n+]1cc[nH]c1SCC(=O)c1ccccc1,"inconclusive: 1.58 µM [activator, single point]",–
CCOC(=O)c1sc(N)c(C#N)c1CSc1nnc(C2CC2)n1N,inactive,–
O=C(CNC(=O)OCc1ccccc1)Oc1ccc2ccc(=O)oc2c1,inactive,–
CCC12C(=O)C(CC)(C(c3ccccc3)=C1c1ccccc1)[C@@H]1C(=O)N(c3ccccc3)C(=O)C12 (stereo partly specified),"inconclusive: 25.1 µM [activator, partial curve, poor fit]",–
CC(C)CC(=O)NC(c1ccccc1)c1c(O)ccc2ccccc12 (stereo unspecified),inactive,–
COc1ccc(O)c(/C=C(\C#N)C(=O)Nc2ccccn2)c1,"inconclusive: 22.4 µM [activator, single point]",–
C/C(CC(=O)Nc1ccc(Cl)c(Cl)c1)=N\NC(N)=S,inactive,–
CCN(CC)CCN(C(=O)/C=C/c1cccs1)c1nc2ccc(F)cc2s1,–,inconclusive: -85.8% [activator]
CCc1nc(NCCO)c(C#N)c2c1CCCC2,"inconclusive: 2.24 µM [activator, full curve, poor fit]",–
CCC(C)c1ccc(OCc2ccc(C(=O)O)o2)cc1 (stereo unspecified),inactive,–
CSCCC(NC(=O)c1ccccc1)C(=O)N1CCN(C(=O)c2ccccc2)CC1 (stereo unspecified),"inconclusive: 0.501 µM [activator, full curve, poor fit]",–
CC(=O)c1ccc(OCCCC(=O)OCC(=O)Nc2ccc3[nH]c(=O)[nH]c3c2)cc1,inactive,–
COc1ccc(C(=O)N2CCN(c3ccc(F)cc3)CC2)cc1S(=O)(=O)NC1CC1,"inconclusive: 5.01 µM [activator, single point]",–
COc1cccc2c1Oc1ncccc1N(C(=O)CCC(=O)NCc1ccc(F)cc1)C2,"inconclusive: 12.6 µM [activator, single point]",–
CC(C)(C)c1ccc(C(=O)Nc2ccccc2NC(=O)c2ccco2)cc1,"inconclusive: 1.41 µM [activator, partial curve, poor fit]",–
CCC(=O)Nc1ccc(-c2ccc(N3CCN(C)CC3)nn2)cc1,inactive,–
COc1ccc(/C=C2\N=C(SC)N(c3ccccc3OC)C2=O)cc1,"inconclusive: 1.12 µM [activator, single point]",–
Cc1ccccc1OCC(=O)Nc1nnc(-c2ccco2)s1,"inconclusive: 3.16 µM [activator, full curve]",–
CC(C)C(=O)Nc1ccc(C(=O)N/N=C/c2cc(Br)cc(Br)c2O)cc1,inactive,–
O=C(COC(=O)CCc1ccccc1)NC12CC3CC(CC(C3)C1)C2,"inconclusive: 5.01 µM [activator, single point]",–
Cc1cc(NC(=O)c2ccc(Cl)cc2)no1,inactive,–

# — PubChem BioAssay AID624291 (National Center for Advancing Translational Sciences (NCATS), 2012)
